Results deposited as PubChem BioAssay AID504774 (Drosophila RNAi Screening Center, 2011).
The screen tested about 23,000 reagents; this is a random part of those with a known target gene and a result. 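Values are quantile-normalised luminescence on an arbitrary scale; higher means more cells surviving MMS.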 Names joined by + are all predicted targets of the reagent.

Aim: 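Fly genes whose loss alters survival after alkylation damage to DNA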 (primary screen)
Cells: Drosophila Kc167 cells
Reagents: long dsRNA against Drosophila genes, about 0.25 µg dsRNA per well
Time to read-out: about 6 days: 3 days knock-down, then 3 days with or without MMS
Conditions: methyl methanesulphonate 0.004% (w/v) for 3 days after knock-down
Measured: 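Viability in wells given MMS, read as ATP luminescence, normalised by quantiles plate by plate and averaged across replicates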
Reading the numbers: mean viability with MMS and viability with MMS: higher = more surviving cells after MMS

gene,dsRNA,mean viability with MMS,"viability with MMS, replicate 1","viability with MMS, replicate 2"
CG2157,DRSC19836,3.59e6,4.12e6,4.00e6
MED23 + CG3700,DRSC04406,3.48e6,3.89e6,3.98e6
MED23 + CG3700,DRSC04407,3.58e6,3.99e6,4.15e6
robo2 (roundabout 2),DRSC00377,3.52e6,3.91e6,4.06e6
robo2 (roundabout 2),DRSC00378,3.42e6,3.79e6,3.91e6
robo2 (roundabout 2),DRSC00686,3.54e6,3.95e6,4.08e6
robo2 (roundabout 2),DRSC00691,3.53e6,4.05e6,3.94e6
SF1 (Splicing factor 1),DRSC16844,3.18e6,3.62e6,3.61e6
CG13545,DRSC04187,3.52e6,4.02e6,3.96e6
GluRIIA (Glutamate receptor IIA),DRSC03334,3.56e6,3.98e6,4.08e6
EloA (Elongin A),DRSC16109,3.45e6,3.86e6,3.97e6
"SdhC (Succinate dehydrogenase, subunit C)",DRSC16088,3.57e6,4.03e6,4.05e6
Mgat4a,DRSC09326,3.52e6,4.05e6,3.93e6
Mgat4a,DRSC11070,3.71e6,4.31e6,4.01e6
CG6454,DRSC16044,3.54e6,4.03e6,4.00e6
Pxn (Peroxidasin),DRSC08685,3.29e6,3.69e6,3.86e6
CG34288,DRSC13564,3.38e6,3.80e6,3.81e6
CG14903,DRSC15024,3.49e6,3.86e6,4.06e6
ND-20L (NADH dehydrogenase (ubiquinone) 20 kDa subunit-like),DRSC15414,3.65e6,4.18e6,4.08e6
tap (target of Poxn),DRSC11402,3.53e6,3.97e6,4.04e6
CG30094,DRSC22268,3.52e6,4.00e6,3.98e6
Cog8 (Component of oligomeric golgi complex 8),DRSC02961,3.63e6,4.28e6,3.99e6
bb8 (big bubble 8),DRSC15578,3.53e6,3.99e6,4.01e6
Obp19d (Odorant-binding protein 19d),DRSC20569,3.67e6,3.99e6,4.27e6
CG8230,DRSC05931,3.46e6,4.00e6,3.86e6
CG16959,DRSC10230,3.66e6,4.17e6,4.10e6
Lcp1Psi (Larval cuticle protein 1 pseudogene),DRSC05105,3.34e6,3.73e6,3.79e6
S-Lap7 (Sperm-Leucylaminopeptidase 7),DRSC06374,3.55e6,3.96e6,4.10e6
CG14610 + asRNA:CR42738,DRSC12554,3.55e6,4.10e6,3.97e6
lambdaTry,DRSC06137,3.52e6,4.02e6,4.02e6
CG13155,DRSC06280,3.52e6,3.99e6,3.99e6
CG33108,DRSC21613,3.65e6,4.17e6,4.09e6
PIG-N (Phosphatidylinositol glycan anchor biosynthesis class N),DRSC06837,3.64e6,4.10e6,4.08e6
Rad23,DRSC17167,3.46e6,4.06e6,3.80e6
CkIIalpha (casein kinase IIalpha),DRSC11946,3.40e6,3.83e6,3.83e6
Rcd-1r + CG13102,DRSC03266,3.65e6,4.26e6,4.02e6
CG13074,DRSC09957,3.75e6,4.19e6,4.22e6
CG6428,DRSC18402,3.69e6,4.23e6,4.16e6
CG6931,DRSC10750,3.62e6,3.99e6,4.22e6
CG3770,DRSC04416,3.44e6,3.89e6,3.86e6
Vps2 (Vacuolar protein sorting 2),DRSC14886,3.36e6,3.77e6,3.88e6
CG14715,DRSC14938,3.66e6,4.20e6,4.14e6
Nos (Nitric oxide synthase),DRSC03381,3.63e6,4.16e6,4.10e6
Ak6 (Adenylate kinase 6),DRSC07274,3.64e6,4.07e6,4.28e6
tws (twins),DRSC12767,3.61e6,4.01e6,4.14e6
tws (twins),DRSC17092,3.23e6,3.69e6,3.71e6

2 neighbouring entries from above, for reference:
gene,dsRNA,mean viability with MMS,"viability with MMS, replicate 1","viability with MMS, replicate 2"
MED23 + CG3700,DRSC04406,3.48e6,3.89e6,3.98e6
MED23 + CG3700,DRSC04407,3.58e6,3.99e6,4.15e6
